# Percent effect of library compounds

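Growth of Mycobacterium tuberculosis over 3 days (7H9 medium with glucose and tyloxapol); the read-out is not stated. Compounds at 50 µM. The record gives no direction; compounds that gave an IC50 in retests scored well above the rest, so higher reads as more growth inhibition. About 69,000 compounds were tested under these conditions; 1.1% (about 760) showed 50% or more at least once.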

The filed quantity is “Percent Effect” (%). The controls that fix the scale are not given in the record; negative values are as filed. The compounds are a random part of those screened. Two or more numbers in one place are separate tests of the same structure; such repeats can differ widely.

SMILES,percent effect
CC(C)c1ccc(S(=O)(=O)Cc2nc(N)nc(N(C)C)n2)cc1,5.556
NC(=O)CNC1(c2ccc(Br)cc2)CCOCC1,-25.41
Cc1noc(C)c1NC(=O)Cn1cc(Br)ccc1=O,-15.87 & 2.299
COc1cccc2ccc(CN3CCN(c4ncccc4C)CC3)nc12,-20.97
CC(CO)NC(=O)c1ccc(NCc2ccccc2)cc1 (stereo not shown),17.2
Cc1ccc(CN(Cc2nc3c(cnn3C)c(=O)[nH]2)C2CC2)o1,-18.84
[H][C@]12CC[C@]([H])(CN(c3cnccn3)C1)N(C(=O)Cc1sc(C)nc1C)C2,24.83
CCN(CC)C(=O)Nc1cc2c(cc1SC)OCCO2,3.359
COc1cccc(CNC(=O)c2cccnc2SC(C)C)c1,2.604
Cc1cnc(N2CCCC(O)C2)nc1-c1ccnn1C (stereo not shown),21.32
[H][C@@]12CN(Cc3ccc(C#N)cc3)C[C@]1([H])OCC(=O)N2CC(N)=O,6.955 & 2.838
CC1CCc2n[nH]c(C(=O)N3CCc4c(nc(N(C)C)[nH]c4=O)C3)c2C1 (stereo not shown),-30.93
[H][C@@]12C[C@H](C(=O)N3CCCC3)CN(CC3CC3)[C@]1([H])CCO2,-6.312 & -2.436
COCC1CCCCN1Cc1nc(-c2ccoc2)oc1C (stereo not shown),-25.62
Cc1noc(C)c1CN1CCN(C(=O)CCn2cncn2)CC1,19.7
COc1ccccc1OCc1cc(C(=O)N2CC=CC2C(C)C)n[nH]1 (stereo not shown),-0.1826 & 28.17
O=C(NCCCN1CCOCC1)c1ccc(-c2ccccc2)[nH]c1=O,-15.63
Cn1c(C2CC2)nc2c1CCN(CCOc1cccc(F)c1)C2,56.73
Cn1cnc2c1CCN(Cc1noc(-c3ccccc3)n1)C2,19.72
O=C(NC1CC1)c1cc(Sc2ncccn2)ccn1,0.1677 & -0.2084
CSc1ccc(NCC(=O)NC(=O)NCC(F)(F)F)cc1F,-1.143 & -8.129
Cc1nc(NC(=O)c2ccc(-n3ncc(C#N)c3N)cc2)sc1C,-8.425
COc1ccc(Cl)cc1NCC(=O)N(Cc1cccnc1)C1CC1,-34.67
[H][C@@]12C[C@@H](c3nnc(C4CC4)o3)O[C@]1([H])CN(C(=O)c1cccn1C)C2,22.76
CCCn1cnc2c1CN(S(=O)(=O)Cc1ccccc1)[C@H](C(=O)OC)C2,-0.6222 & -4.28
Cc1ccc(C)c(S(=O)(=O)CCN2CCCC2Cn2cncn2)c1 (stereo not shown),8.429
Cl.c1ccc(-c2cc(CNCCCC3CCOC3)c3nnnn3c2)cc1 (stereo not shown),15.28
CN(CCO)Cc1cc(=O)n2cc(Br)ccc2n1,2.471
Cc1nc(CN2CCN(S(=O)(=O)N3CCCCC3)CC2)oc1C,-1.066
C[C@@H]1CN(C(=O)c2cnc(C3CC3)nc2)CC[C@@]1(O)C1CCOCC1,10.77
O=C(COCC(=O)N(c1ccccc1)c1ccccc1)N1CCCCC1,3.604 & -30.02
C[C@@H](CO)Nc1cc(-c2cn[nH]c2)ncn1,-21.84
Cn1cc(C(=O)CC2CCCN2C(=O)c2ccc(Cl)o2)cn1 (stereo not shown),7.695 & -2.909
CCNC(=O)COc1ccc(C(=O)NC(C)CCc2ccco2)cc1 (stereo not shown),-8.936 & -5.155
Cc1n[nH]c2c1C(c1ccncc1)SCC(=O)N2 (stereo not shown),-4.018
CN1CCOC(CNCc2ccccc2OCc2ccccn2)C1 (stereo not shown),23.7
CCOc1c(CNCCCn2ccnc2)cc(Cl)cc1OC.Cl.Cl,-2.293
O=C(c1ccccc1F)N1CCOC(c2nc(-c3ncccn3)no2)C1 (stereo not shown),11.55
CN(C)C(=O)N1CCOCC2(CCN(c3ncccn3)C2)C1.O=C(O)C(F)(F)F (stereo not shown),17.42
c1ccc2oc(C3CCN(Cc4ncon4)CC3)nc2c1,8.656 & -25.04
COc1ccccc1C(NC(=O)C1CCCC1)c1noc(C)n1 (stereo not shown),-30.68
O=C(NCCC(=O)N1CCCc2ccccc21)c1cc(F)cc(F)c1,13.12
CC[C@H](C)[C@H](NC(=O)Cc1csc(-c2cccc(Cl)c2)n1)C(=O)O,-7.918
O=C(N[C@@H]1CCNC[C@H]1O)c1ccc(O)c(Cl)c1,-10.01
Cc1nc(C2(NCc3ccc(C#N)cc3F)CCCC2)no1,25.58
Cc1nc(C)c(C(=O)N2Cc3ccccc3OCC2CN(C)C)o1.Cl.Cl (stereo not shown),20.5
Cc1cnn(CCCNC(=O)NCCS(=O)(=O)Nc2ccccc2)c1,-0.1358
Cc1noc(C)c1CN1CCc2c(CNc3nccs3)n[nH]c2C1.O=C(O)C(F)(F)F,-15.32
[H][C@@]12CCN(C(=O)NC(C)C)[C@@]1([H])CC(=O)N2Cc1cccnc1,-7.184
O=C(CN1CCCC1Cn1cncn1)NCCOc1cccc(F)c1 (stereo not shown),58.47
CN(CCc1ccncc1)C(=O)C1CSCN1C(=O)CC(C)(C)C (stereo not shown),0.4229 & 0.3812
CC(OCC(F)(F)F)C(=O)N1CCCC1 (stereo not shown),-12.72
c1ccc2c(c1)COC1(CCCCC1)N2,-16.33
COc1cc(NC(=O)N(C)C(C2CC2)C2CC2)ncn1,18.13 & -30.99
CN1CCCN(C(=O)c2cc3c(s2)CCN3C(=O)c2ccccc2)CC1,16.59
CC(C)Nc1nc(N2CCCC2)nc2c1CN(C)CC2,-0.6525
COc1ccccc1CC(C)N(C)S(C)(=O)=O (stereo not shown),17.83 & 1.692
Cc1ccc(=O)n(CC(=O)N2CCCC(c3nc(C)c(C)s3)C2)n1 (stereo not shown),-0.6992
CCc1nnc(C2Cc3ccccc3CN2Cc2nc(C)no2)o1 (stereo not shown),12.32
COc1cccc(Nc2nc(-c3ccncc3)nc3c2CNCC3)c1.Cl,7.183
O=C(O)C(F)(F)F.[H][C@]12CC[C@@]3(N=C(C)N(CC(C)C)C3=O)[C@@]1([H])CN(CC1CC1)C2,17.41
CN(C)C(=O)c1cccn1-c1ccc2c(c1)OCCO2,6.809
CC(C)c1cc(NC(=O)c2ccc(C(=O)NC(C)(C)C)cc2)[nH]n1,0.3508
CCN(CC)S(=O)(=O)N(C)Cc1ccc2c(c1)OCCO2,10.44
COCCCN(C)S(=O)(=O)c1ccc(Cl)cc1C#N,2.226 & 6.336
Cc1cc(C)c(C#N)c(NCCSc2nncn2C)n1,1.13
NC(=O)C1CCCN(c2ccc(CNC(=O)c3cc[nH]n3)cc2)C1 (stereo not shown),-42.49
O=C(O)[C@@H]1CN(CC(=O)N2CCCCCC2)C[C@H]1c1ccc(F)cc1,12.46
Cc1cc(N2Cc3cnn(CCO)c3C2)nc(-c2ccccc2)n1,-2.576
CCc1cnc(NCC(CC)N2CCOCC2)nc1 (stereo not shown),1.952
c1ccc(-n2ccc(CNCC3CCCN3c3cccnn3)n2)cc1 (stereo not shown),7.771
N#Cc1ccc(CS(=O)(=O)NC(=O)c2ccc(C#N)cc2)cc1,-6.019 & -10.31
Fc1cccc(-n2nc(C3CC3)nc2CCn2cnnn2)c1,-7.179
CC(NC(=O)NC1CC1)c1nc(-c2ccccc2)cs1 (stereo not shown),-1.028
CCSc1cc(C(=O)NC(C)c2cccc(N3CCOC3=O)c2)ccn1 (stereo not shown),-26.88 & -12.76
[H][C@]12CC[C@]([H])(CN(C(=O)c3ccc(Cl)cc3)C1)N(CCOC)C2,19.12

Once more, the final 6:

{"smiles": "c1ccc(-n2ccc(CNCC3CCCN3c3cccnn3)n2)cc1", "stereo": "stereo not shown", "percent effect": 7.771}
{"smiles": "N#Cc1ccc(CS(=O)(=O)NC(=O)c2ccc(C#N)cc2)cc1", "percent effect": "-6.019 & -10.31"}
{"smiles": "Fc1cccc(-n2nc(C3CC3)nc2CCn2cnnn2)c1", "percent effect": -7.179}
{"smiles": "CC(NC(=O)NC1CC1)c1nc(-c2ccccc2)cs1", "stereo": "stereo not shown", "percent effect": -1.028}
{"smiles": "CCSc1cc(C(=O)NC(C)c2cccc(N3CCOC3=O)c2)ccn1", "stereo": "stereo not shown", "percent effect": "-26.88 & -12.76"}
{"smiles": "[H][C@]12CC[C@]([H])(CN(C(=O)c3ccc(Cl)cc3)C1)N(CCOC)C2", "percent effect": 19.12}

From ChEMBL document CHEMBL3988442, “University of Dundee, Small-Polar-MMV Screening Library” (2021).